Differences between knockout arms are mostly noise.
Test system: SKBR3
Assay: relative cell number vs DMSO control (72 h) (% of DMSO); higher = less growth inhibition (more cells)
Method: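 QMAP-Seq: a pool of 5 breast cancer cell lines (ZR-75-1, SKBR3, HCC-38, MDA-MB-231, BT-20), each carrying 12 doxycycline-inducible Cas9 sgRNA perturbations (11 knockouts plus non-targeting sgNT), was treated with compounds for 72 h at four 10-fold doses (10 nM-10 uM or 1 nM-1 uM range). Barcodes were amplified and sequenced, and cell number was interpolated from 293T spike-in standard curves. The result is expressed as % of the median of DMSO wells. Two biological replicates.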

O=C(Cc1ccc(-c2ccc(OCCN3CCOCC3)cc2)cn1)NCc1ccccc1 [KX2391]
Settings	relative cell number
sgRNA knockout: sgATF3, 10 nM	117
sgRNA knockout: sgATF3, 100 nM	17.12
sgRNA knockout: sgATF3, 1000 nM	12.2
sgRNA knockout: sgATF3, 10000 nM	13.1
sgRNA knockout: sgATF4, 10 nM	132
sgRNA knockout: sgATF4, 100 nM	11.6
sgRNA knockout: sgATF4, 1000 nM	11.4
sgRNA knockout: sgATF4, 10000 nM	11.6
sgRNA knockout: sgATF6, 10 nM	118
sgRNA knockout: sgATF6, 100 nM	14.3
sgRNA knockout: sgATF6, 1000 nM	10.9
sgRNA knockout: sgATF6, 10000 nM	10.9
sgRNA knockout: sgATG7, 10 nM	104
sgRNA knockout: sgATG7, 100 nM	16.6
sgRNA knockout: sgATG7, 1000 nM	9.27
sgRNA knockout: sgATG7, 10000 nM	12.9
sgRNA knockout: sgERN1, 10 nM	133
sgRNA knockout: sgERN1, 100 nM	13.4
sgRNA knockout: sgERN1, 1000 nM	8.22
sgRNA knockout: sgERN1, 10000 nM	13.7
sgRNA knockout: sgHSF1, 10 nM	123
sgRNA knockout: sgHSF1, 100 nM	14.3
sgRNA knockout: sgHSF1, 1000 nM	5.7
sgRNA knockout: sgHSF1, 10000 nM	9.37
sgRNA knockout: sgHSF2, 10 nM	115
sgRNA knockout: sgHSF2, 100 nM	15.5
sgRNA knockout: sgHSF2, 1000 nM	9.01
sgRNA knockout: sgHSF2, 10000 nM	15.7
sgRNA knockout: sgKEAP1, 10 nM	128
sgRNA knockout: sgKEAP1, 100 nM	11.2
sgRNA knockout: sgKEAP1, 1000 nM	10.2
sgRNA knockout: sgKEAP1, 10000 nM	7.9
sgRNA knockout: sgNFE2L2, 10 nM	127
sgRNA knockout: sgNFE2L2, 100 nM	16.9
sgRNA knockout: sgNFE2L2, 1000 nM	10.3
sgRNA knockout: sgNFE2L2, 10000 nM	14
sgRNA knockout: sgSLC35F2, 10 nM	137.4
sgRNA knockout: sgSLC35F2, 100 nM	12.2
sgRNA knockout: sgSLC35F2, 1000 nM	8.29
sgRNA knockout: sgSLC35F2, 10000 nM	16.1
sgRNA knockout: sgXBP1, 10 nM	109
sgRNA knockout: sgXBP1, 100 nM	18.4
sgRNA knockout: sgXBP1, 1000 nM	8.6
sgRNA knockout: sgXBP1, 10000 nM	8.86

C=C1C[C@@H]2[C@H](CC[C@]3(C)C(=O)CC[C@@H]23)[C@@]2(C)C=CC(=O)C=C12 [Exemestane]
Settings	relative cell number
sgRNA knockout: sgATF3, 10 nM	118
sgRNA knockout: sgATF3, 100 nM	83.2
sgRNA knockout: sgATF3, 1000 nM	136
sgRNA knockout: sgATF3, 10000 nM	91.3
sgRNA knockout: sgATF4, 10 nM	107
sgRNA knockout: sgATF4, 100 nM	100
sgRNA knockout: sgATF4, 1000 nM	100
sgRNA knockout: sgATF4, 10000 nM	81.29
sgRNA knockout: sgATF6, 10 nM	92.5
sgRNA knockout: sgATF6, 100 nM	91.3
sgRNA knockout: sgATF6, 1000 nM	119
sgRNA knockout: sgATF6, 10000 nM	81
sgRNA knockout: sgATG7, 10 nM	131
sgRNA knockout: sgATG7, 100 nM	118
sgRNA knockout: sgATG7, 1000 nM	102.5
sgRNA knockout: sgATG7, 10000 nM	101
sgRNA knockout: sgERN1, 10 nM	108
sgRNA knockout: sgERN1, 100 nM	103
sgRNA knockout: sgERN1, 1000 nM	113
sgRNA knockout: sgERN1, 10000 nM	107.5
sgRNA knockout: sgHSF1, 10 nM	106
sgRNA knockout: sgHSF1, 100 nM	87.9
sgRNA knockout: sgHSF1, 1000 nM	98.9
sgRNA knockout: sgHSF1, 10000 nM	99.2
sgRNA knockout: sgHSF2, 10 nM	109
sgRNA knockout: sgHSF2, 100 nM	93.3
sgRNA knockout: sgHSF2, 1000 nM	122
sgRNA knockout: sgHSF2, 10000 nM	79.6
sgRNA knockout: sgKEAP1, 10 nM	104
sgRNA knockout: sgKEAP1, 100 nM	92.9
sgRNA knockout: sgKEAP1, 1000 nM	108
sgRNA knockout: sgKEAP1, 10000 nM	94.5
sgRNA knockout: sgNFE2L2, 10 nM	108
sgRNA knockout: sgNFE2L2, 100 nM	85.9
sgRNA knockout: sgNFE2L2, 1000 nM	111
sgRNA knockout: sgNFE2L2, 10000 nM	72.4
sgRNA knockout: sgSLC35F2, 10 nM	102
sgRNA knockout: sgSLC35F2, 100 nM	104
sgRNA knockout: sgSLC35F2, 1000 nM	93.3
sgRNA knockout: sgSLC35F2, 10000 nM	110
sgRNA knockout: sgXBP1, 10 nM	104
sgRNA knockout: sgXBP1, 100 nM	109.4
sgRNA knockout: sgXBP1, 1000 nM	119
sgRNA knockout: sgXBP1, 10000 nM	112

COc1cc2c(Oc3ccc4[nH]c(C)cc4c3F)ncnc2cc1OCCCN1CCCC1 [Cediranib]
Settings	relative cell number
sgRNA knockout: sgATF3, 10 nM	102.9
sgRNA knockout: sgATF3, 100 nM	119
sgRNA knockout: sgATF3, 1000 nM	98.7
sgRNA knockout: sgATF3, 10000 nM	10.9
sgRNA knockout: sgATF4, 10 nM	94.7
sgRNA knockout: sgATF4, 100 nM	88.2
sgRNA knockout: sgATF4, 1000 nM	91.4
sgRNA knockout: sgATF4, 10000 nM	9.25
sgRNA knockout: sgATF6, 10 nM	97.5
sgRNA knockout: sgATF6, 100 nM	86.3
sgRNA knockout: sgATF6, 1000 nM	86.6
sgRNA knockout: sgATF6, 10000 nM	9.65
sgRNA knockout: sgATG7, 10 nM	97
sgRNA knockout: sgATG7, 100 nM	112
sgRNA knockout: sgATG7, 1000 nM	98.7
sgRNA knockout: sgATG7, 10000 nM	9.14
sgRNA knockout: sgERN1, 10 nM	108.5
sgRNA knockout: sgERN1, 100 nM	112
sgRNA knockout: sgERN1, 1000 nM	103
sgRNA knockout: sgERN1, 10000 nM	6.79
sgRNA knockout: sgHSF1, 10 nM	68.2
sgRNA knockout: sgHSF1, 100 nM	96.5
sgRNA knockout: sgHSF1, 1000 nM	92.5
sgRNA knockout: sgHSF1, 10000 nM	6.65
sgRNA knockout: sgHSF2, 10 nM	96.4
sgRNA knockout: sgHSF2, 100 nM	88.89
sgRNA knockout: sgHSF2, 1000 nM	110
sgRNA knockout: sgHSF2, 10000 nM	8.29
sgRNA knockout: sgKEAP1, 10 nM	85.1
sgRNA knockout: sgKEAP1, 100 nM	101
sgRNA knockout: sgKEAP1, 1000 nM	79.7
sgRNA knockout: sgKEAP1, 10000 nM	7.6
sgRNA knockout: sgNFE2L2, 10 nM	101
sgRNA knockout: sgNFE2L2, 100 nM	93.4
sgRNA knockout: sgNFE2L2, 1000 nM	91.4
sgRNA knockout: sgNFE2L2, 10000 nM	7.48
sgRNA knockout: sgSLC35F2, 10 nM	106
sgRNA knockout: sgSLC35F2, 100 nM	87.9
sgRNA knockout: sgSLC35F2, 1000 nM	85.7
sgRNA knockout: sgSLC35F2, 10000 nM	9.21
sgRNA knockout: sgXBP1, 10 nM	95.6
sgRNA knockout: sgXBP1, 100 nM	110
sgRNA knockout: sgXBP1, 1000 nM	94.8
sgRNA knockout: sgXBP1, 10000 nM	8.31

Source: the supplement of paper PMC7661543
